Some of these results come from one statement about several compounds together.
Test system: Mice, strain ICR
Test: Tail pinch test (modified Haffner's method)

For `COc1ccc2c3c1O[C@H]1C(=O)CC[C@@]4(O)[C@@H](C2)N(C)CC[C@]314` [oxycodone], the “Time the significant analgesic effect lasted after administration” value (high dose oxycodone 10 mg/kg IP (PEA 25 mg/kg where combined), P<0.001, FIG. 3A) was “at least 90 minutes” and the “Time the significant analgesic effect lasted after administration” value (low dose oxycodone 5 mg/kg IP (PEA 25 mg/kg where combined), 7M P<0.01, 9M P<0.001, FIG. 3B) was “at least 90 minutes”.
